A short description of this data set: general procedure: Fmoc solid-phase peptide synthesis; Rink amide resin; PyBOP/DIEA. The note with it: conjugation step.
Consider N3—(CH2)3-K(dansyl)-S-T-G-V-S-T-G-V, for which the conjugation yield came to 14%.
In turn, N3—(CH2)3-Y-G-E-G-E-F-N-K(dansyl) displayed a conjugation yield of 55%.
Then N3—(CH2)3-I-E-A-D-K(dansyl)-G-I-D, with 30%.
As for N3—(CH2)3-K(dansyl)-F-D-S-E-F-D-S-E, the conjugation yield is 48%.
Next, N3—(CH2)3-S-T-A-F-A-Y-G-K(dansyl): 30%.

The record behind these values is patent US10281459B2 (YEDA RESEARCH AND DEVELOPMENT CO. LTD., priority 2012, dated 2019).
